Test results from PMC11925928.

What was measured:
[1] = target: Cellular tumor antigen p53 (human (endogenous in HCT116)), P04637; experiment: affinity purification with mass spectrometry; TF-chRDP: HCT116 cells (375 uM 5-FU for 9 h to activate p53; DMSO as control) dual cross-linked with 1% formaldehyde and 2 mM EGS; nuclei sonicated; endogenous p53 chromatin complexes immunoprecipitated overnight at 4°C with anti-p53 (sc-126) on Protein G beads; low salt, high salt and TE washes; on-bead trypsin digestion; nano LC-MS/MS, MaxQuant; details: remark: other sources report otherwise
[2] = target: Cellular tumor antigen p53 (human (endogenous in HCT116)) (UniProt P04637); experiment: as above

B1: TRIM28, Q13263 1-835 (protein)
chain: MAASAAAASAAAASAASGSPGPGEGSAGGEKRSTAPSAAASASASAAASSPAGGGAEALELLEHCGVCRERLRPEREPRLLPCLHSACSACLGPAAPAAANSSGDGGAAGDGTVVDCPVCKQQCFSKDIVENYFMRDSGSKAATDAQDANQCCTSCEDNAPATSYCVECSEPLCETCVEAHQRVKYTKDHTVRSTGPAKSRDGERTVYCNVHKHEPLVLFCESCDTLTCRDCQLNAHKDHQYQFLEDAVRNQRKLLASLVKRLGDKHATLQKSTKEVRSSIRQVSDVQKRVQVDVKMAILQIMKELNKRGRVLVNDAQKVTEGQQERLERQHWTMTKIQKHQEHILRFASWALESDNNTALLLSKKLIYFQLHRALKMIVDPVEPHGEMKFQWDLNAWTKSAEAFGKIVAERPGTNSTGPAPMAPPRAPGPLSKQGSGSSQPMEVQEGYGFGSGDDPYSSAEPHVSGVKRSRSGEGEVSGLMRKVPRVSLERLDLDLTADSQPPVFKVFPGSTTEDYNLIVIERGAAAAATGQPGTAPAGTPGAPPLAGMAIVKEEETEAAIGAPPTATEGPETKPVLMALAEGPGAEGPRLASPSGSTSSGLEVVAPEGTSAPGGGPGTLDDSATICRVCQKPGDLVMCNQCEFCFHLDCHLPALQDVPGEEWSCSLCHVLPDLKEEDGSLSLDGADSTGVVAKLSPANQRKCERVLLALFCHEPCRPLHQLATDSTFSLDQPGGTLDLTLIRARLQEKLSPPYSSPQEFAQDVGRMFKQFNKLTEDKADVQSIIGLQRFFETRMNEAFGDTKFSAVLVEPPPMSLPGAGLSSQELSGGPGDGP
B1 was tested, and the binding [1] was “binds”.

B2: Heterogeneous nuclear ribonucleoprotein M (protein, UniProt P52272 1-730)
chain: MAAGVEAAAEVAATEIKMEEESGAPGVPSGNGAPGPKGEGERPAQNEKRKEKNIKRGGNRFEPYANPTKRYRAFITNIPFDVKWQSLKDLVKEKVGEVTYVELLMDAEGKSRGCAVVEFKMEESMKKAAEVLNKHSLSGRPLKVKEDPDGEHARRAMQKVMATTGGMGMGPGGPGMITIPPSILNNPNIPNEIIHALQAGRLGSTVFVANLDYKVGWKKLKEVFSMAGVVVRADILEDKDGKSRGIGTVTFEQSIEAVQAISMFNGQLLFDRPMHVKMDERALPKGDFFPPERPQQLPHGLGGIGMGLGPGGQPIDANHLNKGIGMGNIGPAGMGMEGIGFGINKMGGMEGPFGGGMENMGRFGSGMNMGRINEILSNALKRGEIIAKQGGGGGGGSVPGIERMGPGIDRLGGAGMERMGAGLGHGMDRVGSEIERMGLVMDRMGSVERMGSGIERMGPLGLDHMASSIERMGQTMERIGSGVERMGAGMGFGLERMAAPIDRVGQTIERMGSGVERMGPAIERMGLSMERMVPAGMGAGLERMGPVMDRMATGLERMGANNLERMGLERMGANSLERMGLERMGANSLERMGPAMGPALGAGIERMGLAMGGGGGASFDRAIEMERGNFGGSFAGSFGGAGGHAPGVARKACQIFVRNLPFDFTWKMLKDKFNECGHVLYADIKMENGKSKGCGVVKFESPEVAERACRMMNGMKLSGREIDVRIDRNA
With B2 the binding [2] was “binds”.

These are yes or no findings as the source states them, for the method shown. Binding seen in cells or lysates may run through a third protein. A yes stands for co-enrichment or nearness to the bait. Other partners may have been found.
